## Drug screen on melanoma cell lines: apoptosis marker

Compounds and concentrations:
PF-562271, 0.4 µM: CN(c1ncccc1CNc1nc(Nc2ccc3c(c2)CC(=O)N3)ncc1C(F)(F)F)S(C)(=O)=O
MK-1775, 0.1 µM: C=CCn1c(=O)c2cnc(Nc3ccc(N4CCN(C)CC4)cc3)nc2n1-c1cccc(C(C)(C)O)n1
AZD7762, 0.1 µM: NC(=O)Nc1cc(-c2cccc(F)c2)sc1C(=O)N[C@H]1CCCNC1
selumetinib, 0.075 µM: Cn1cnc2c(F)c(Nc3ccc(Br)cc3Cl)c(C(=O)NOCCO)cc21
GW441756, 2 µM: Cn1cc(/C=C2\C(=O)Nc3cccnc32)c2ccccc21
erlotinib, 4 µM: C#Cc1cccc(Nc2ncnc3cc(OCCOC)c(OCCOC)cc23)c1
JZL184, 5 µM: O=C(Oc1ccc([N+](=O)[O-])cc1)N1CCC(C(O)(c2ccc3c(c2)OCO3)c2ccc3c(c2)OCO3)CC1
MK-2206, 2 µM: NC1(c2ccc(-c3nc4ccn5c(=O)[nH]nc5c4cc3-c3ccccc3)cc2)CCC1
KU-0063794, 0.1 µM: COc1ccc(-c2ccc3c(N4CCOCC4)nc(N4C[C@@H](C)O[C@@H](C)C4)nc3n2)cc1CO
bexarotene, 10 µM: C=C(c1ccc(C(=O)O)cc1)c1cc2c(cc1C)C(C)(C)CCC2(C)C
vatalanib, 10 µM: Clc1ccc(Nc2nnc(Cc3ccncc3)c3ccccc23)cc1
fingolimod, 10 µM: CCCCCCCCc1ccc(CCC(N)(CO)CO)cc1

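Human melanoma cells were exposed to two drugs together for 72 h in 1,536-well plates and read by automated microscopy after fixing and staining. The read-out is the fraction of cleaved-PARP-positive nuclei, in % of that fraction in the DMSO control; 200 means twice the control level of this apoptosis marker. Concentrations were fixed for each drug; these are the higher of two levels. No replicate spread is given; individual values may be noisy. Basal and induced levels differ widely between cell lines.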 An unselected part of the screen is shown. A dash means that no value is listed here.

Combination	RVH-421	UACC-62	RPMI-7951	WM3619	WM3526	501mel
fingolimod + MK-2206	849	385	2960	4820	4100	-
MK-1775 + fingolimod	619	134	698	2100	1090	-
selumetinib + bexarotene	351	325	79.3	166	407	-
vatalanib + MK-1775	773	180	73.0	232	218	-
selumetinib + MK-2206	81.4	337	24.5	212	384	-
KU-0063794 + vatalanib	160	155	39.5	315	87.7	78.3
AZD7762 + vatalanib	96.8	311	222	369	582	-
JZL184 + GW441756	212	47.3	91.6	105	60.1	98.3
KU-0063794 + JZL184	216	156	133	128	65.7	99.6
erlotinib + MK-1775	84.3	183	132	167	188	-
KU-0063794 + MK-1775	70.8	133	125	288	170	119
bexarotene + MK-1775	95.9	205	155	198	197	-
MK-2206 + JZL184	44.5	285	288	86.7	117	84.0
selumetinib + fingolimod	905	263	2570	2610	4320	-
AZD7762 + MK-1775	181	134	526	556	2580	-
JZL184 + PF-562271	182	239	199	97.8	83.1	112
erlotinib + JZL184	89.7	119	105	89.2	95.6	428
AZD7762 + fingolimod	1430	172	7510	1290	5810	-
selumetinib + vatalanib	138	307	134	598	161	-
vatalanib + MK-2206	190	680	158	152	623	-
bexarotene + JZL184	79.3	145	136	111	70.3	71.9
KU-0063794 + PF-562271	245	244	336	105	93.7	38.9
GW441756 + vatalanib	51.8	165	90.4	193	49.1	47.3
bexarotene + KU-0063794	253	134	146	146	57.4	127
vatalanib + PF-562271	141	236	161	273	297	-
vatalanib + fingolimod	3310	235	3970	6290	3050	-
selumetinib + AZD7762	106	196	325	310	806	-
KU-0063794 + AZD7762	52.5	123	201	884	766	133
AZD7762 + PF-562271	71.2	122	207	241	138	-
JZL184 + selumetinib	437	103	39.5	125	115	223
erlotinib + bexarotene	89.0	270	46.9	79.3	301	-
GW441756 + KU-0063794	252	138	152	148	103	-
vatalanib + erlotinib	97.5	345	224	135	241	-
fingolimod + KU-0063794	2230	301	2610	2950	3990	3250

Data from the primary screen of doi:10.1371/journal.pone.0140310, rounded.